Results deposited as PubChem BioAssay AID504804 (Drosophila RNAi Screening Center, 2011)

- Assay: 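Fly genes whose loss lessens doxorubicin-driven cell death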 (primary screen)
- Cells: Drosophila Kc cells
- Reagents: long dsRNA against Drosophila genes, 0.5 µg dsRNA per well
- Duration: 96 h (48 h knock-down, then 48 h drug)
- Challenge: doxorubicin 5 µg/ml for 48 h, added 48 h after dsRNA
- Measurement: 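Viability measured as cellular ATP by luminescence after 48 h knock-down then 48 h doxorubicin at 5 µg/ml; unnormalised plate counts for each replicate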
- Reading the numbers: raw ATP luminescence: higher = more viable cells, protection from doxorubicin
- Active means: 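Active when both duplicate wells lie at least 2 SD above the plate mean and protection is confirmed by rescreening and independent dsRNAs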
The screen tested about 19,000 reagents; below is an unselected part of those with a known target gene and a result. In the full data, 47 (0.25%) are marked active. 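Signals are raw, not normalised; exact z-scores behind calls not deposited; actives needed confirmation, so some wells reaching 2 SD are inactive.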 Unmarked entries are inactive. A plus sign joins genes that one reagent is predicted to hit.

With Cpr65Ec [DRSC11025], what does the deposit list?
raw ATP luminescence, replicate 1: 73150; raw ATP luminescence, replicate 2: 80557

With CG8006 [DRSC10949], what does the deposit list?
raw ATP luminescence, replicate 1: 43260; raw ATP luminescence, replicate 2: 46783

What is on record for Fatp2 [DRSC03971]?
raw ATP luminescence, replicate 1: 67640; raw ATP luminescence, replicate 2: 80347

With Fatp2 [DRSC04178], how do the results read?
raw ATP luminescence, replicate 1: 60047; raw ATP luminescence, replicate 2: 52137

For Fatp2 [DRSC04330], what was measured?
raw ATP luminescence, replicate 1: 70657; raw ATP luminescence, replicate 2: 64313

What is on record for Arp5 [DRSC16350]?
raw ATP luminescence, replicate 1: 30610; raw ATP luminescence, replicate 2: 45487

What did the screen give for mRpL38 [DRSC19734]?
raw ATP luminescence, replicate 1: 4.08e5; raw ATP luminescence, replicate 2: 3.56e5

For Argk2 [DRSC10483], what was measured?
raw ATP luminescence, replicate 1: 73953; raw ATP luminescence, replicate 2: 89990

With flip [DRSC12326], how do the results read?
raw ATP luminescence, replicate 1: 67217; raw ATP luminescence, replicate 2: 56447

With CG11630 [DRSC03696], what does the deposit list?
raw ATP luminescence, replicate 1: 57913; raw ATP luminescence, replicate 2: 55987

What did the screen give for CG3701 (retired record) [DRSC04408]?
raw ATP luminescence, replicate 1: 39603; raw ATP luminescence, replicate 2: 65900

What did the screen give for CG3701 (retired record) [DRSC04409]?
raw ATP luminescence, replicate 1: 36030; raw ATP luminescence, replicate 2: 59847

For CG34051 [DRSC01739], what was measured?
raw ATP luminescence, replicate 1: 89070; raw ATP luminescence, replicate 2: 52217

Which result is listed for cDIP [DRSC14267]?
raw ATP luminescence, replicate 1: 47460; raw ATP luminescence, replicate 2: 31313

What did the screen give for CG4069 [DRSC10396]?
raw ATP luminescence, replicate 1: 30827; raw ATP luminescence, replicate 2: 29807

Which result is listed for CG18234 [DRSC10309]?
raw ATP luminescence, replicate 1: 99887; raw ATP luminescence, replicate 2: 41947

With rswl [DRSC06923], what does the deposit list?
raw ATP luminescence, replicate 1: 63660; raw ATP luminescence, replicate 2: 67707

What is on record for CG42512 + CG32573 [DRSC19532]?
raw ATP luminescence, replicate 1: 4.19e5; raw ATP luminescence, replicate 2: 3.28e5

For raptor [DRSC18359], what does the deposit list?
raw ATP luminescence, replicate 1: 49520; raw ATP luminescence, replicate 2: 50450

What did the screen give for Cog7 [DRSC16331]?
raw ATP luminescence, replicate 1: 52890; raw ATP luminescence, replicate 2: 41100

Which result is listed for CG3760 [DRSC04415]?
raw ATP luminescence, replicate 1: 1.84e5; raw ATP luminescence, replicate 2: 2.26e5

What did the screen give for CG44837 [DRSC10133]?
raw ATP luminescence, replicate 1: 95027; raw ATP luminescence, replicate 2: 71643

What is on record for CG44837 [DRSC10558]?
raw ATP luminescence, replicate 1: 87300; raw ATP luminescence, replicate 2: 91543

How did the screen score defl [DRSC10300]?
raw ATP luminescence, replicate 1: 53473; raw ATP luminescence, replicate 2: 37260

What did the screen give for Ir68a [DRSC10599]?
raw ATP luminescence, replicate 1: 75480; raw ATP luminescence, replicate 2: 70463

With Gld [DRSC12595], how do the results read?
raw ATP luminescence, replicate 1: 73133; raw ATP luminescence, replicate 2: 61270

With Cog1 [DRSC15661], what was measured?
raw ATP luminescence, replicate 1: 60837; raw ATP luminescence, replicate 2: 21493

Which result is listed for D [DRSC11132]?
raw ATP luminescence, replicate 1: 56350; raw ATP luminescence, replicate 2: 46333

Part of the list above in another layout.
target gene,DRSC id,"raw ATP luminescence, replicate 1","raw ATP luminescence, replicate 2"
rswl,DRSC06923,63660,67707
CG42512 + CG32573,DRSC19532,4.19e5,3.28e5
raptor,DRSC18359,49520,50450
Cog7,DRSC16331,52890,41100
CG3760,DRSC04415,1.84e5,2.26e5
